PubChem BioAssay AID652243 – Drosophila RNAi Screening Center – 2013
The screen tested about 24,000 reagents; shown is a random part of those with a known target gene and a result. Over the whole deposit, 246 (1%) are marked active. 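Plates not normalised; calls are printed but the firefly/Renilla ratio behind them is not deposited; fold cut for lowering reported inconsistently.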 The raw values are shown without normalisation. Names joined by + are all predicted targets of the reagent. The record does not give: the amount of reagent.

- Assay: 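Fly genes required for human androgen receptor driven transcription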 (primary screen)
- System: Drosophila S2R+ cells
- Reagent: long dsRNA against Drosophila genes
- Time to read-out: 72 h (48 h, then 24 h hormone)
- Challenge: synthetic androgen R1881 at 10 nM for 24 h
- Measurement: 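Firefly light from an androgen-responsive reporter and Renilla control light per well, raw and unnormalised, for each of two replicates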
- Reading the numbers: firefly reporter light: higher = more light from androgen-responsive reporter; Renilla control light: higher = more constitutive control signal (cell number, transfection)
- Hit rule: 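Across duplicate plates, a knock-down whose log firefly/Renilla ratio shifted a set fold down or up from the GFP/LacZ control mean was a hit; the downward cut appears as both 1.5 and 3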
- Calls: active = hit: reporter lowered or raised; inactive = no hit

| Gene | DRSC id | firefly reporter light, replicate 1 | firefly reporter light, replicate 2 | Renilla control light, replicate 1 | Renilla control light, replicate 2 | outcome |
| --- | --- | --- | --- | --- | --- | --- |
| Ost48 (Oligosaccharyltransferase 48kD subunit) | DRSC18693 | 98829 | 1.02e5 | 7.02e5 | 8.24e5 | inactive |
| CG16749 | DRSC15146 | 1.42e5 | 1.57e5 | 2.84e6 | 2.58e6 | inactive |
| CG16749 | DRSC25605 | 8.95e5 | 1.18e6 | 1.04e6 | 1.22e6 | inactive |
| Ran-like | DRSC10918 | 8.23e5 | 6.21e5 | 1.40e6 | 1.41e6 | inactive |
| rst (roughest) | DRSC17243 | 3.78e5 | 3.88e5 | 3.87e5 | 3.47e5 | inactive |
| rst (roughest) | DRSC18828 | 2.45e5 | 2.35e5 | 3.18e6 | 3.05e6 | inactive |
| rst (roughest) | DRSC25716 | 3.52e5 | 2.02e5 | 1.20e6 | 5.14e5 | inactive |
| CG15200 | DRSC19647 | 4.47e5 | 4.61e5 | 3.31e6 | 3.34e6 | inactive |
| CG15200 | DRSC24618 | 8.95e5 | 9.92e5 | 9.96e5 | 7.81e5 | inactive |
| Hs3st-B (Heparan sulfate 3-O sulfotransferase-B) | DRSC20067 | 50029 | 52784 | 1.49e5 | 1.30e5 | inactive |
| Uhg4 + snoRNA:Psi28S-2949 | DRSC36561 | 7.44e5 | 7.82e5 | 1.91e6 | 1.65e6 | inactive |
